Reference: patent US11116771B2, “G protein-coupled receptor (GPCR) modulation by imipridones” (Oncoceutics, Inc., priority 2016, dated 2021)
Some entries share one result that the patent states for a list of compounds.

How the values were obtained:
Format in all cases: cell-based
[1] = system: Staphylococcus aureus ATCC 700699; experiment: MIC by micro-broth dilution, S. aureus ATCC 700699; details: MDR Staphylococcus aureus (ATCC 700699)
[2] = system: Staphylococcus aureus ATCC 29213; experiment: MIC by micro-broth dilution, S. aureus ATCC 29213; details: wild type Staphylococcus aureus (ATCC 29213)
[3] = system: Staphylococcus aureus ATCC 33591; experiment: MIC by micro-broth dilution, S. aureus ATCC 33591; details: methicillin resistant

Measured: MIC

Cc1ccccc1CN1C(=O)C2=C(CCNC2)N2CCN=C12 [ONC207]
> 100 µg/mL: all assays above
